Assay results from the supplement of paper PMC12819154, “High-throughput peptide-centric local stability assay extends protein–ligand identification to membrane proteins, tissues and bacteria” (Nature Structural & Molecular Biology, 2025).
The list shows a part of the results. Small differences around the control level are noise.

By UniProt entry, the sequences of proteins in these tests, tags left out. Where a name states a change or a piece, a line headed by the entry shows the natural chain unless it says otherwise.
UniProt P39361: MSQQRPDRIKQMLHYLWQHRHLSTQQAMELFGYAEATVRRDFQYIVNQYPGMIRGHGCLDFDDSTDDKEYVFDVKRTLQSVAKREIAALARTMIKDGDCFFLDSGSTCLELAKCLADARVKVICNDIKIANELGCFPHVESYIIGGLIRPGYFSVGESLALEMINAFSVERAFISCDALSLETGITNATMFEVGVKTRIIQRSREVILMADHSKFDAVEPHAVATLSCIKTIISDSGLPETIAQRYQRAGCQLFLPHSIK
UniProt P37624: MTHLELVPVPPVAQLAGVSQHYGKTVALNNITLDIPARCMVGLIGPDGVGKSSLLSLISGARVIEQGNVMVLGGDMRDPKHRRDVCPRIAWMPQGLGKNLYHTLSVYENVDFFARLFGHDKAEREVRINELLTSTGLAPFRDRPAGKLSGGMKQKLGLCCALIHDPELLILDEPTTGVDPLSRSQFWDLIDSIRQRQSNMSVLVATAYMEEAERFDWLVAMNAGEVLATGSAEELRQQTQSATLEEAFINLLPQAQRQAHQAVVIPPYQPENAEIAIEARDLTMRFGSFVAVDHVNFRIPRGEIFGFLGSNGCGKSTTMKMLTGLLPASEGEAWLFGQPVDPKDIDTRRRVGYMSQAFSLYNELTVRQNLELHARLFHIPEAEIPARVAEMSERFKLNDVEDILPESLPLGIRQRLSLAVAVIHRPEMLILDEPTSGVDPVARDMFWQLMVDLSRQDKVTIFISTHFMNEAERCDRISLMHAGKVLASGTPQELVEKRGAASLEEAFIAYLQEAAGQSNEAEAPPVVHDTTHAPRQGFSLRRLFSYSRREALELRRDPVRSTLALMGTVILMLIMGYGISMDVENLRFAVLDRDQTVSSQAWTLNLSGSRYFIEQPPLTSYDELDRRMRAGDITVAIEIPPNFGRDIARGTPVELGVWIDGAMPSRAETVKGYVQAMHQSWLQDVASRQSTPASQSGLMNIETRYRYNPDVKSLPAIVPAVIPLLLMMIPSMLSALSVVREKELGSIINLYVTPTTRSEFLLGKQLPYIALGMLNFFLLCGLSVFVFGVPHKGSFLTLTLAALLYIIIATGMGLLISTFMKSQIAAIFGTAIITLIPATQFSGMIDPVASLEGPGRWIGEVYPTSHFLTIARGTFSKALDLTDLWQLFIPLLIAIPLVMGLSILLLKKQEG
UniProt P39325: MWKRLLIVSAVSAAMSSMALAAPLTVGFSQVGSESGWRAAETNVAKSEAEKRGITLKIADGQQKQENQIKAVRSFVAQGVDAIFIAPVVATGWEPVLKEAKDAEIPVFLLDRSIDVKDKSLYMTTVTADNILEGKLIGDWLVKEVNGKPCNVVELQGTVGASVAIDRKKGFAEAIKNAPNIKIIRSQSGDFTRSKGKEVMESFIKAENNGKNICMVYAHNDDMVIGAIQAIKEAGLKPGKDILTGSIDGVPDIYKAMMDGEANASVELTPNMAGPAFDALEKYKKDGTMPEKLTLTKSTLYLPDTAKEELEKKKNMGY
UniProt P37344, whole entry: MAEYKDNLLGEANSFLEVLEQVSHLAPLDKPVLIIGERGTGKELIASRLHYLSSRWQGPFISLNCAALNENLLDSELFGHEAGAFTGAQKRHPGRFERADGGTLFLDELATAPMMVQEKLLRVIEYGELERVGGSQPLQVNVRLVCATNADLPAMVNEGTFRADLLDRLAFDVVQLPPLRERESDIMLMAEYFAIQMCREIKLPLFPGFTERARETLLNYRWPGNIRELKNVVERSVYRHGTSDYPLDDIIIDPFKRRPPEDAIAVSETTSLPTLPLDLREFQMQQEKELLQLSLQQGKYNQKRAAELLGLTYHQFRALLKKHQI
UniProt P39362: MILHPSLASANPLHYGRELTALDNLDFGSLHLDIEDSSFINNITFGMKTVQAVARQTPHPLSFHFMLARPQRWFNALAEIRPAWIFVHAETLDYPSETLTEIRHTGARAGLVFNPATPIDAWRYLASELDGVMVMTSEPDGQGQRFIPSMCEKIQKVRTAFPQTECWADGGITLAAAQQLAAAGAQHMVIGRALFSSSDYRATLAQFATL
UniProt P37750: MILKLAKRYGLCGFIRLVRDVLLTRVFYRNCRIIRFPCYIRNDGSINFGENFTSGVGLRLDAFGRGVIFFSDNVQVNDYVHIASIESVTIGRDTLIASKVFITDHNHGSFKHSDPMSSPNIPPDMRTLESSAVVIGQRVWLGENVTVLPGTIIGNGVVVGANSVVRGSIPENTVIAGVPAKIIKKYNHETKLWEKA
UniProt P37626: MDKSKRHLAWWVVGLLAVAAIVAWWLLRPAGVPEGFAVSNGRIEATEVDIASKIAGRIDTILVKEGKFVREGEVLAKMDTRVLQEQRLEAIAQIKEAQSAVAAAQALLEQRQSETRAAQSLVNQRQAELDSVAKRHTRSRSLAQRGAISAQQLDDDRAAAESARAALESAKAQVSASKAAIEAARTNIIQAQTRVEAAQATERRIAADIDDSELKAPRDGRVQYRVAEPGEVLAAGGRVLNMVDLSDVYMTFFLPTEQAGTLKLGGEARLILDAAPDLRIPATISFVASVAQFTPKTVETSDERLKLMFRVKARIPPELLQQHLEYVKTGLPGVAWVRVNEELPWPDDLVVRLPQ
UniProt P36995: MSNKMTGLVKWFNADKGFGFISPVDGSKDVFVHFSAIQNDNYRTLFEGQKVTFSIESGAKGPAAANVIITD
UniProt P43329: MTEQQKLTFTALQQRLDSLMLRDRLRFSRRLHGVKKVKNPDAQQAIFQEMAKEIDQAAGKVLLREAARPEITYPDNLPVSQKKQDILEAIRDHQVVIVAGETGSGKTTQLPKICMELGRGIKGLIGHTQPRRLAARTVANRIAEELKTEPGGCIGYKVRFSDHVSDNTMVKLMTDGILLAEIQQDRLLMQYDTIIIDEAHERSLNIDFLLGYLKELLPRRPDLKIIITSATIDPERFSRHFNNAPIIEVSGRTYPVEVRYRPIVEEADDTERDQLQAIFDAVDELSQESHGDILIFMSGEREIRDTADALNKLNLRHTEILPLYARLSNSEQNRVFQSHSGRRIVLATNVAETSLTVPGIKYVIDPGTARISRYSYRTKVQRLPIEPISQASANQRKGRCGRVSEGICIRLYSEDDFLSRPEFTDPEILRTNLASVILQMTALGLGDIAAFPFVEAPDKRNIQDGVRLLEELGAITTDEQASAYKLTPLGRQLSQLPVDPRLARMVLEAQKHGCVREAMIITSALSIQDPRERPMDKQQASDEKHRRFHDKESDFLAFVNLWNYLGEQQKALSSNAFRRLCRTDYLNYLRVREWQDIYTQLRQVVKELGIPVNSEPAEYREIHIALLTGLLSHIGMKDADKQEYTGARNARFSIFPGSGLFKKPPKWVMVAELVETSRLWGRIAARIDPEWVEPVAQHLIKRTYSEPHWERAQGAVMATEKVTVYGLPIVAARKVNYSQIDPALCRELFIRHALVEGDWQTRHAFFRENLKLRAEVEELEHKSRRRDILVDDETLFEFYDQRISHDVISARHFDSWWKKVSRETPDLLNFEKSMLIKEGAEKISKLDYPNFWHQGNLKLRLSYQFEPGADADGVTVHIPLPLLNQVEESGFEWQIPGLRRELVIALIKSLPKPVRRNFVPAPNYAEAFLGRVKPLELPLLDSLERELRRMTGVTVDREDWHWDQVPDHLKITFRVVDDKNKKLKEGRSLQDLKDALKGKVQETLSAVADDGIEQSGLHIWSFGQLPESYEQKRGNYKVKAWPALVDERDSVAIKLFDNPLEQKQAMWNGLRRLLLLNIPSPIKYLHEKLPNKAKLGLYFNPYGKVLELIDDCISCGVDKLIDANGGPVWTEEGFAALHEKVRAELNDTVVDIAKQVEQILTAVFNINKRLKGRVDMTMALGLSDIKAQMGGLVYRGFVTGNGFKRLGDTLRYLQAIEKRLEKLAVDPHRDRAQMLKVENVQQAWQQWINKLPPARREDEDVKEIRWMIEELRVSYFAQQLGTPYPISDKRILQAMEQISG
UniProt P42904: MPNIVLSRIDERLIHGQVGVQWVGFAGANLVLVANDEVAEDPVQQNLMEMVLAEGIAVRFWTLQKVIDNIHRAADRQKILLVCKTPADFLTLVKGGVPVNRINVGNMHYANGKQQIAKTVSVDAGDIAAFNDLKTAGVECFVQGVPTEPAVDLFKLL
UniProt P37757: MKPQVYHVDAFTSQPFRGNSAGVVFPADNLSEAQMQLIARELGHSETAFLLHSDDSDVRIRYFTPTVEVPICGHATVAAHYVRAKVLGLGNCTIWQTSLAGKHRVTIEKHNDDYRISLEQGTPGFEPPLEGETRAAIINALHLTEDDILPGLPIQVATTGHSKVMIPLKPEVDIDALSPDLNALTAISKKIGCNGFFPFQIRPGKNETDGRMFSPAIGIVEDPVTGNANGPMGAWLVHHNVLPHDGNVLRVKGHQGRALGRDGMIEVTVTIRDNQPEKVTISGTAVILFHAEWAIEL
UniProt P37664: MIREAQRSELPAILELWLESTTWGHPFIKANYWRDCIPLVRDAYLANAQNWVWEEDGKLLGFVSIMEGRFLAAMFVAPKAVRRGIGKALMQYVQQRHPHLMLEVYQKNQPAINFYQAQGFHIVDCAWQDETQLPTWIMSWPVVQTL
UniProt P45551: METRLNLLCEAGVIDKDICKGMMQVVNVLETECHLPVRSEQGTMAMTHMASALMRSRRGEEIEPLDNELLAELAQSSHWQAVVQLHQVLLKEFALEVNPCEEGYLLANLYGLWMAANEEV
UniProt P33941: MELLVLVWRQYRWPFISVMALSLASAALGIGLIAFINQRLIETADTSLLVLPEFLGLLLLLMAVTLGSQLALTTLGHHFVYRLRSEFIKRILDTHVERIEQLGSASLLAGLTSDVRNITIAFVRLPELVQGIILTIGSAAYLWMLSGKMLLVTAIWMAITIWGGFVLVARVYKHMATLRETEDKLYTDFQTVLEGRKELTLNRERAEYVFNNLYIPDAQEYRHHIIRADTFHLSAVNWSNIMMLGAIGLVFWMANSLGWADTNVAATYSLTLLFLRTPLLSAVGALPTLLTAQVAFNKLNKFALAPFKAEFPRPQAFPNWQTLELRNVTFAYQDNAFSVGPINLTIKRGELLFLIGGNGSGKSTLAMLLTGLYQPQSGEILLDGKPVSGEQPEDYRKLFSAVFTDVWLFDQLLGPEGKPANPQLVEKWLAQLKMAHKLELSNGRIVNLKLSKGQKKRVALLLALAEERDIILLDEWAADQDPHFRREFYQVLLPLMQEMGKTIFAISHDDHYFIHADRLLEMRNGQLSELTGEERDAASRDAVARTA
UniProt P36667: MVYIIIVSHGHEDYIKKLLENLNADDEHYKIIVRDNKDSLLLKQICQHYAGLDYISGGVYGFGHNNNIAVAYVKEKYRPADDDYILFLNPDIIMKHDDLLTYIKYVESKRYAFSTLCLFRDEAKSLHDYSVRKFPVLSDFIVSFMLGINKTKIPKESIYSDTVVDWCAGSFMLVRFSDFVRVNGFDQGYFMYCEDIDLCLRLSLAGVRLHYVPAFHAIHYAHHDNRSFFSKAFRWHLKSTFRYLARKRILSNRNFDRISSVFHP
UniProt P36930: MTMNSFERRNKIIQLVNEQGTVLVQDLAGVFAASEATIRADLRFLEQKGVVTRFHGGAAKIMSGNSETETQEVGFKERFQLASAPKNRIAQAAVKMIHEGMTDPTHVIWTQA
UniProt P45807: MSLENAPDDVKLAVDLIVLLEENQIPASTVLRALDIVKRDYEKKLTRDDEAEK
UniProt P39389: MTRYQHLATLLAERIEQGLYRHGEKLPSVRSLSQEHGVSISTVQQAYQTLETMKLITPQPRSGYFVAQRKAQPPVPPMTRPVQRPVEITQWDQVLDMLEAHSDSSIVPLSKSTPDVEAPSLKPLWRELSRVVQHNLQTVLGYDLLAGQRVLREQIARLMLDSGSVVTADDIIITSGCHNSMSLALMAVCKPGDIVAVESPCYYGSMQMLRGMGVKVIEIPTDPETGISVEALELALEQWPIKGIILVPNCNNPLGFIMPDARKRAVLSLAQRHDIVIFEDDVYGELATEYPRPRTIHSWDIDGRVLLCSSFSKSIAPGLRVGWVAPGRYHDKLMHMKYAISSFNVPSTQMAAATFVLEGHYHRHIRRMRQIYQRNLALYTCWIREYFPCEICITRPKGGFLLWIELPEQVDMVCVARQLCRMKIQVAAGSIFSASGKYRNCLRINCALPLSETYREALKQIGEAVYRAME
UniProt P33934: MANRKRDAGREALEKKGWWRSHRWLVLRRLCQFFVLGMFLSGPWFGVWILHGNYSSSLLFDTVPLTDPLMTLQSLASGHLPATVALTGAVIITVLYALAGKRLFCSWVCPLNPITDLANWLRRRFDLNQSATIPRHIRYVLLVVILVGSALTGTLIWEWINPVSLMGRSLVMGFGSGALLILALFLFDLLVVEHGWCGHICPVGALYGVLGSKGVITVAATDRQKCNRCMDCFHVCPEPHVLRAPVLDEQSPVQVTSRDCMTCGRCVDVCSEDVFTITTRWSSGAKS
UniProt P37182: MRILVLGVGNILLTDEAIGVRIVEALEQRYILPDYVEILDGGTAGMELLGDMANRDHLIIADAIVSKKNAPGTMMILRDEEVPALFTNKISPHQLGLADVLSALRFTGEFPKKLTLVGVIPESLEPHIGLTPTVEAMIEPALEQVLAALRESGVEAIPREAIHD

compound: CC1(C)S[C@@H]2[C@H](NC(=O)[C@H](N)c3ccccc3)C(=O)N2[C@H]1C(=O)O [ampicillin]; test: log2 fold change of tryptic peptide abundance, ligand vs vehicle (limited proteolysis) (log2 ratio); higher = more trypsin-susceptible (destabilized); conditions: ligand concentration: 10 uM; sample: E. coli crude lysate

Row | Target | log2 fold change
1 | UniProt P39361 (peptide sequence: AGCQLFLPHSIK, peptide start residue: 249) | -0.199
2 | UniProt P37624 (peptide sequence: FGSFVAVDHVNFR, peptide start residue: 286) | -0.125
3 | UniProt P37908 (peptide sequence: AFNWHLPEDDAR, peptide start residue: 363) | -0.044
4 | UniProt P39325 (peptide sequence: AAETNVAKSEAEKR, peptide start residue: 39) | 0.351
5 | UniProt P37344 (peptide sequence: ELLQLSLQQGK, peptide start residue: 289) | -0.38
6 | UniProt P39343 (peptide sequence: MAAQMLLSK, peptide start residue: 301) | -0.191
7 | UniProt P39362 (peptide sequence: ALFSSSDYR, peptide start residue: 193) | -0.113
8 | UniProt P38684 (peptide sequence: ERSTVGIILVTGR, peptide start residue: 70) | 0.481
9 | UniProt P39363 (peptide sequence: ISQFIDSPQR, peptide start residue: 115) | 0.0125
10 | UniProt P37750 (peptide sequence: HSDPMSSPNIPPDMR, peptide start residue: 112) | -0.161
11 | UniProt P37626 (peptide sequence: RIAADIDDSELKAPR, peptide start residue: 204) | 0.163
12 | UniProt P45469 (peptide sequence: VKGEMEEALIAQNWPK, peptide start residue: 125) | 0.158
13 | UniProt P36995 (peptide sequence: VTFSIESGAK, peptide start residue: 51) | 0.157
14 | UniProt P43329 (peptide sequence: IDPEWVEPVAQHLIK, peptide start residue: 687) | 0.349
15 | UniProt P39288 (peptide sequence: LQAWLDK, peptide start residue: 40) | -0.197
16 | UniProt P42904 (peptide sequence: INVGNMHYANGK, peptide start residue: 102) | 0.0447
17 | UniProt P37757 (peptide sequence: ELGHSETAFLLHSDDSDVR, peptide start residue: 41) | 0.43
18 | UniProt P37664 (peptide sequence: HPHLMLEVYQK, peptide start residue: 97) | 0.596
19 | UniProt P45551 (peptide sequence: SEQGTMAMTHMASALMR, peptide start residue: 39) | 0.094

2 records picked at random from the list so far:
Row | Target | log2 fold change
2 | UniProt P37624 (peptide sequence: FGSFVAVDHVNFR, peptide start residue: 286) | -0.125
13 | UniProt P36995 (peptide sequence: VTFSIESGAK, peptide start residue: 51) | 0.157

The list goes on:

Row | Target | log2 fold change
20 | UniProt P33941 (peptide sequence: NGQLSELTGEER, peptide start residue: 524) | 0.179
21 | UniProt P36667 (peptide sequence: HDDLLTYIK, peptide start residue: 96) | -0.378
22 | UniProt P37342 (peptide sequence: ALDEGVICDMFEGHAPYKPR, peptide start residue: 51) | -0.182
23 | UniProt P36930 (peptide sequence: FQLASAPK, peptide start residue: 79) | 0.0165
24 | UniProt P45807 (peptide sequence: LTRDDEAEK, peptide start residue: 45) | 0.0895
25 | UniProt P45423 (peptide sequence: DLCLRYKR, peptide start residue: 73) | -0.02
26 | UniProt P37617 (peptide sequence: VSGMDCAACARK, peptide start residue: 54) | 1.18
27 | UniProt P37005 (peptide sequence: AENIGAAAR, peptide start residue: 13) | 0.376
28 | UniProt P37902 (peptide sequence: ALFKEPNDKALN, peptide start residue: 291) | -0.252
29 | UniProt P39382 (peptide sequence: EKNPIEVYK, peptide start residue: 171) | 0.362
30 | UniProt P39389 (peptide sequence: SGYFVAQR, peptide start residue: 62) | -0.155
31 | UniProt P33915 (peptide sequence: AAQALGVSDR, peptide start residue: 237) | -0.204
32 | UniProt P37773 (peptide sequence: KLTTDASEWEVLLDGEK, peptide start residue: 251) | -0.304
33 | UniProt P39279 (peptide sequence: LAGVPCQVYVR, peptide start residue: 244) | 0.139
34 | UniProt P33934 (peptide sequence: GVITVAATDR, peptide start residue: 214) | 0.178
35 | UniProt P42628 (peptide sequence: GVIADASTPAGR, peptide start residue: 8) | -0.0272
36 | UniProt P36645 (peptide sequence: TQQTLPVAVQEK, peptide start residue: 66) | -0.546
37 | UniProt P37182 (peptide sequence: FTGEFPKK, peptide start residue: 106) | -0.924
